The source of these data is the supplement of paper PMC5949888.

Most values lie at the floor of the assay. Slopes are relative: functional sequences can read slightly below zero.

In the series the test system is Saccharomyces cerevisiae PS128 hsf1 delta, HSF1(1-493) fusion. Put plainly: growth estimate (transactivation domain function in HSF1 fusion, heat-shock survival) (a.u. (slope of normalised read count over time)); higher = stronger growth at 37°C, i.e. more transactivation activity. To be noted: library: random library. How it is done:
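Random 60-nt DNA library encoding peptides of up to 20 aa, fused to the C-terminus of yeast HSF1 residues 1-493 (C-terminal TAD deleted) and expressed from the native HSF1 promoter on a CEN plasmid in hsf1-deleted S. cerevisiae PS128. Cells were selected at 37°C on -trp 5-FOA plates for 0, 2, 4, 6 and 8 days and amplicons were sequenced. Growth estimate is the slope of a robust linear fit of total-sum-normalised read counts (normalised to the first time point) over time, using at least 2 replicates. Sequences are classed functional (TAD activity) above a threshold of -0.13, set from stop-codon control sequences.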
Consider RALLGFGILRRRRHNREAVR, for which the growth estimate was below -0.25.
Regarding SPRARHLWFNPTS, the growth estimate was below -0.25.
In the case of QGAKKDGRQTWNFGIQSLTS, the growth estimate was below -0.25.
With CDRTMSKRCGDE, the growth estimate was below -0.25.
The figure for RINRDPFYLISHANSDVHHL is below -0.25; for CPLVRPHVVGEHGLDRLVQQ it is below -0.25; for IQLPRYQGMGLSLPRTHTYT it is below -0.25.
Turning to RVGKGGVNPQVRAHSFVVLD, the growth estimate is below -0.25.
In the case of QPRRILGPCFRRWRPALQHE it was below -0.25; in that of VTTSGSRSIG, below -0.25; in that of RLRREIGGEGSVGLKSPATR, below -0.25.
For the substance EMSVRECHSLVRVMIVQVRI, the growth estimate is below -0.25.
In the case of GVNSMGPSQSGLILPRTLAK, the growth estimate is -0.246.
For the substance PLREPAPCTGEWATGCESRL, the growth estimate was below -0.25.
Regarding ARGTECARSENGPLLTSTPL, the growth estimate was below -0.25.
With LAVRLPWRPFDNRFELSLGG, the growth estimate was below -0.25.
Regarding GQDRVHFL, the growth estimate was below -0.25.
For the substance GILEDARACGSLPPGVVLVR, the growth estimate was below -0.25.
The figure for AINRLPKLKPSGVVYKFWRC is below -0.25; for FERVSGCGLGIAARSTAITQ it is below -0.25; for RNLIVGYGT it is below -0.25.
For the substance LWS, the growth estimate is below -0.25.
In the case of RELRFPTGYRERRHRSL it was below -0.25; in that of SLGERLDNTGTDSSGVSNGP, below -0.25.
Turning to DLSVHPGARRSSGRPDFNFG, the growth estimate was below -0.25.
As for GISEGIQACPLRIGEKIGPM, the growth estimate was below -0.25.
With AIRGPRTKVLEFQR, the growth estimate was below -0.25.
RHQNMEFGRMESSQGGSLGG: the growth estimate is below -0.25.
With KLNGPRGHVTGLHWSPSSVG, the growth estimate is below -0.25.
For RVSKG, the growth estimate was below -0.25.
Consider GWSDTLLRICELRAAASGSP, for which the growth estimate was below -0.25.
The figure for AVFPEGQTVSPSLGYERSPP is below -0.25; for RVKMLTYARCNLEGGCWVY it is below -0.25.
For NSIYYVALCQ, the growth estimate was below -0.25.
For the substance IRQYR, the growth estimate is below -0.25.
On to GLWSTG, for which the growth estimate is below -0.25.
In the case of LVWLKYYRLQQGILRVTEGR, the growth estimate was -0.245.
In the case of NKNRTSLKCVDPLFQLRLSR it was below -0.25; in that of RILSRFP, below -0.25.
Consider WVGGKHVSPKYLSSGSSAMF, for which the growth estimate was below -0.25.
The figure for PVDIGEHPRRRCVL is -0.167; for TTDPIIATPNRPAPGEMHAF it is below -0.25; for GNVLGSASLIQTSEDLQTFE it is below -0.25.
On to DKFGRIAHYI, for which the growth estimate was below -0.25.
Turning to GNIW, the growth estimate was below -0.25.
On to RNEKRNVRAPVYAVPHH, for which the growth estimate was below -0.25.
As for LECKCVLGVIGGLYWVV, the growth estimate is below -0.25.
With RVSIGCFRCFPSQVPLSRPL, the growth estimate is below -0.25.
Turning to PRTLLKTTCSDAIASRVRPG, the growth estimate is below -0.25.
QTVSQVRDQNPQHTWVVVSD: the growth estimate is below -0.25.
Turning to IGGSRCQTFNPVVRSLRPGL, the growth estimate was below -0.25.
As for VGSRGSASKYLSSQGS, the growth estimate is below -0.25.
In the case of LHGVYWQGIVVLGIAKIDQT it was below -0.25; in that of ATCSYGGLAVTKDENYEGF, below -0.25; in that of GKEWHVRHRGLAFWLPVAGP, below -0.25.
The figure for ASDVVWGEGP is below -0.25.
For SRTLRMRWLGESSFQISLSR, the growth estimate was below -0.25.
In the case of YVNVVSHKNAGGLREIRRTG it was below -0.25.
Take TTFRLQQGERITCAVRIKPL: the growth estimate is below -0.25.
In the case of QADRY it was below -0.25.
In the case of KFTSYDPYSRQ it was below -0.25; in that of RLINEGGP, below -0.25.
SYFIFKLPVCCACCGLWTRF: the growth estimate is below -0.25.
Take YRCYINRGRIQNRCG: the growth estimate is below -0.25.
With GQTNLCRSPTLWRYGLARNV, the growth estimate was below -0.25.
As to VRRAMLCVITRQNPGLSFTH, the growth estimate was -0.203.
The figure for RLLGASFI is below -0.25.
In the case of NIIAFIWGHERSSSISIWPV, the growth estimate was below -0.25.
Take GSTQKIWDLENA: the growth estimate is below -0.25.
The figure for PYSVHGLAVSVRLSSEFTCP is below -0.25.
The figure for RQPLSLSAPVVLLCRWPTST is below -0.25.
Take GARTKLRDQVTSLVDVGFAS: the growth estimate is below -0.25.
Consider TLRGERICNQRSY, for which the growth estimate was below -0.25.
SSLAMIEHSVR: the growth estimate is below -0.25.
For the substance CPRGKELRGGEFATHGTRQR, the growth estimate was below -0.25.
In the case of ISKRPERPVSECRGFS it was below -0.25.
Consider IDKPPPHPGAVPGAGNSSGK, for which the growth estimate was below -0.25.
In the case of MGEDRVGSH it was below -0.25; in that of SVRLGS, below -0.25; in that of SYG, below -0.25.
For RSRSVFGKHICFGAAHSGSS, the growth estimate was below -0.25.
On to GHLQFKFNKDPPGTDLGESR, for which the growth estimate was below -0.25.
Take SRRHGIAWRITLAHSL: the growth estimate was below -0.25.
For VLINSRRSSVPNQDHARISR, the growth estimate was below -0.25.
Turning to GSEVERQ, the growth estimate was below -0.25.
In the case of PSERCYI it was below -0.25; in that of VPSTNVMVNV, below -0.25.
Regarding EWDRGQEGPH, the growth estimate is below -0.25.
For the substance MLGCFAVPDSRSIKDGCPRL, the growth estimate is below -0.25.
Consider PVASLCR, for which the growth estimate was below -0.25.
With PTHSPNQSCVGNPERVRCQV, the growth estimate was below -0.25.
In the case of GRLYY it was below -0.25.
As to APPLLRNVLHRYTDPEARGG, the growth estimate was below -0.25.
With ATNQSPGGKLRSNSKPRNLM, the growth estimate was below -0.25.
In the case of MIHAQDLPRSQSRHCVVLRP, the growth estimate is below -0.25.
On to RAGKPYLVNVFTSGQPDFKC, for which the growth estimate was below -0.25.
For ICLLAAPGVCELYTGAVYDG, the growth estimate is below -0.25.
The figure for ELEPGKAGFVIDGGA is below -0.25; for TIFAG it is below -0.25; for STGLVLVG it is below -0.25.
The figure for CSRREY is below -0.25.
Turning to SSETTRRRQ, the growth estimate is below -0.25.
Turning to CKVLGSLYGYVLET, the growth estimate was below -0.25.
As to VKTC, the growth estimate is below -0.25.
With ETGLPCPCHPAYSSSMDCVR, the growth estimate was below -0.25.
On to LIVVGLTRS, for which the growth estimate was below -0.25.
Take VFKGLPSR: the growth estimate is -0.236.
Regarding ARRASGRWVLICVSMVTQW, the growth estimate is below -0.25.
As for VSVVYYWPRQGGALAAAILL, the growth estimate was below -0.25.
Turning to ISLAENSV, the growth estimate is below -0.25.
Regarding QDAMAPPLLRLLPRTCRCVV, the growth estimate was below -0.25.
Consider LNRAFPE, for which the growth estimate is below -0.25.
On to GFYTISCGCTPCRGFKIHPA, for which the growth estimate was below -0.25.
Turning to GVPCFDAFSAARRYAVSK, the growth estimate was below -0.25.
TVSTRGLYSTGQVPCG: the growth estimate is below -0.25.
The figure for GRERTM is below -0.25; for GTSPRRLCLAHIRQ it is below -0.25.
As to MCTVFLHLGKEFYCHPRTAD, the growth estimate is below -0.25.
AMERAARPLFASSTAIGESP: the growth estimate was below -0.25.
As to ICVS, the growth estimate was below -0.25.
For TRIDLAIVGKNHLSFSSPGQ, the growth estimate was -0.241.
With PIGGSRGWFHGQSARPHLGP, the growth estimate was below -0.25.
Consider DERGHPHSVGEVGLGP, for which the growth estimate was below -0.25.
As to PAGR, the growth estimate is below -0.25.
Consider IRCAL, for which the growth estimate was below -0.25.
In the case of VKD it was below -0.25; in that of GAGWSLKVENGHVEVWSSGN, below -0.25.
The figure for RSPYTEGGSTSDLRARANLD is below -0.25; for RHYSRTRVKPLPDRISLISQ it is below -0.25.
QSTKL: the growth estimate was below -0.25.
In the case of QNSTSSYSTGRPHDLAAEIV, the growth estimate was below -0.25.
With SYDRPVPRFRVTAVVTRLPV, the growth estimate was below -0.25.
In the case of LGVPTRRRGLASITAHGTVG it was below -0.25; in that of LDIVNYAGARSVEPDTR, below -0.25.
In the case of AESREDWQWGRKTIKNARQV it was below -0.25; in that of GIYVLKART, below -0.25.
PVR: the growth estimate is below -0.25.
For the substance HGQINAREDIVGSGPLFLNS, the growth estimate was below -0.25.
As to QICSGQGVILRFSYDRTGTT, the growth estimate is below -0.25.
Take HDGRDGHDLTPRRTLALAGK: the growth estimate was below -0.25.
On to FASGLFSISSQIWKGCQDKR, for which the growth estimate was below -0.25.
Turning to LAYRLG, the growth estimate is below -0.25.
As for EFLHAIPELTEGRGTRKMLA, the growth estimate is below -0.25.
Turning to PEHLKASRTRVRGLYALIEH, the growth estimate is below -0.25.
In the case of YCVASTIDQYEGE it was below -0.25.
As to QELYFGVKISSNTRSTNPMG, the growth estimate is below -0.25.
In the case of SPGTLSDIL, the growth estimate is below -0.25.
For the substance RQGTSASRRGFADYGVPIRY, the growth estimate was -0.229.
For the substance FRVWDIKTHVGLAPCHGVCC, the growth estimate was below -0.25.
